Publication PMC12448072
These are yes or no findings as the source states them, for the method shown. For part of these data: In cells and extracts the contact can be indirect. Some binding calls cover weakened binding; strength is not graded here. For part of these data: Where a sequence is shown, tags or fusion partners need not be part of it.

How the values were obtained:
PILS3-GFP (A. thaliana) = target: T1, PILS3-GFP (A. thaliana) (UniProt Q9C9K5); assay: co-IP; PILS3-GFP coexpressed with mScarlet-tagged ERAD components transiently in N. benthamiana; α-RFP or α-GFP IPs, immunoblot with RFP or GFP antibodies
T1 sequence: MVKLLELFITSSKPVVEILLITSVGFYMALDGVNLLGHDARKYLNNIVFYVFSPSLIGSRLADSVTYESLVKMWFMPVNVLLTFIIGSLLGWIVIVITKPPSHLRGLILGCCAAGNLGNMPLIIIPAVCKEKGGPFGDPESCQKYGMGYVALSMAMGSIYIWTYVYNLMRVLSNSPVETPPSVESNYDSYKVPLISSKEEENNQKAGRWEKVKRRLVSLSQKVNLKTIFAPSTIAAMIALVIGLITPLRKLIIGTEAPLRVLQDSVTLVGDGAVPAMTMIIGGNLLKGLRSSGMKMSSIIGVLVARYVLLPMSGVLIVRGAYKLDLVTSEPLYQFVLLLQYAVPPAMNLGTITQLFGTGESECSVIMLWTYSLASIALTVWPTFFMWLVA

[1] = target: T2, PILS3 (split-ubiquitin bait) (A. thaliana) (UniProt Q9C9K5); assay: two-hybrid; mating-based split-ubiquitin system for transmembrane proteins in yeast; PILS3 bait (pMetYC-DEST, THY.AP4), preys in PNX35-DEST (THY.AP5); growth on SD -Trp -Leu -Ade -His -Ura at 21°C
T2 sequence: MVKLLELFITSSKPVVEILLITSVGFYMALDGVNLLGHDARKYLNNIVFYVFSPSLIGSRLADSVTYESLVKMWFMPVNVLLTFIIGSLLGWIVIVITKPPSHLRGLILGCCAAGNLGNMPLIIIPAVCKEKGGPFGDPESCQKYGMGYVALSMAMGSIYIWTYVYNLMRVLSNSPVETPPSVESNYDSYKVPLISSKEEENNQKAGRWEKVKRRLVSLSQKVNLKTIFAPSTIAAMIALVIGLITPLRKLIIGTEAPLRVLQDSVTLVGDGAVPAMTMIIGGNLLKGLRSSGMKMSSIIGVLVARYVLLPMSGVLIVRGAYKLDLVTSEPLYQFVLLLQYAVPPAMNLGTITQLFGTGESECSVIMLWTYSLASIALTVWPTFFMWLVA

PILS3-cYFP (A. thaliana) = target: T3, PILS3-cYFP (A. thaliana) (UniProt Q9C9K5); assay: split reporter; ratiometric BiFC (rBiFC) in transiently transformed N. benthamiana leaves; PILS3-cYFP with nYFP fusions, mRFP from the same T-DNA as expression control
T3 sequence: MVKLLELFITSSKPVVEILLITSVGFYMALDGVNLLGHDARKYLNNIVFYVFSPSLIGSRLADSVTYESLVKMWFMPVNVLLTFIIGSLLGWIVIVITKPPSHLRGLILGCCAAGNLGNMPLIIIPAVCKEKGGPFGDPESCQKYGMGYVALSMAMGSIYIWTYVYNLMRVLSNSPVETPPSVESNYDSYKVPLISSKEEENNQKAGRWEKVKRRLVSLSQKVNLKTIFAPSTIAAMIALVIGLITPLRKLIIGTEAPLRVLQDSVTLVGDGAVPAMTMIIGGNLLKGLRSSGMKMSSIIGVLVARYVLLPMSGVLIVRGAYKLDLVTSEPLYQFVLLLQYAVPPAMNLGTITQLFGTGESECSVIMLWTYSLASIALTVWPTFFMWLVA

Row | Binder | binding (PILS3-GFP (A. thaliana)) | binding [1] | binding (PILS3-cYFP (A. thaliana))
1 | DER2.1-mScarlet (protein, UniProt Q8VZ96 1-244) MAQAVEEWYKQMPIITRSYLTAAVVTTVGCSLEIISPYNLYLNPTLVVKQYQFWRLVTNFLYFRKMDLDFLFHMFFLARYCKLLEENSFRGKTADFLYMLLFGATVLTGIVLIGGMIPYLSVSFSKIIFLSNSLTFMMVYVWSKQNPYIHMSFLGLFTFTAAYLPWVLLGFSILVGASAWGDFLGMIAGHAYYFLAFVYPRMTDRRPLKTPSFLKALFADEPVVIARPEDVRFAHAPFDEIHQD | binds | – | –
2 | DER2.2-mScarlet (protein, UniProt Q9ZS88 1-244) MAQAVEEWYKQMPIITRSYLTAAVITTVGCSLDIISPYNLYLNPTLVVKQYQYWRLVTNFLYFRKMDLDFMFHMFFLARYCKLLEENSFRGKTADFLYMLLFGASVLTGIVLIGGMIPYLSASFAKIIFLSNSLTFMMVYVWSKQNPYIHMSFLGLFTFTAAYLPWVLLGFSILVGASAWVDLLGMIAGHAYYFLAEVYPRMTNRRPLKTPSFLKALFADEPVVVARPEDVRFAAAPFDEIHQD | binds | – | –
3 | HRD1A (split-ubiquitin prey) (protein, UniProt Q9LW77 1-492) MIRLRTYAGLSFMATLAVIYHAFSSRGQFYPATVYLSTSKISLVLLLNMCLVLMLSLWHLVKFVFLGSLREAEVERLNEQAWRELMEILFAITIFRQDFSSGFLPLVVTLLLIKALHWLAQKRVEYIETTPSVSKLSHFRIVSFMGFLLLVDSLFMYSSIRHLIQSRQASVSLFFSFEYMILATTTVAIFVKYVFYVTDMLMDGQWEKKPVYTFYLELIRDLLHLSMYICFFFVIFMNYGVPLHLLRELYETFRNFQIRVSDYLRYRKITSNMNDRFPDATPEELTASDATCIICREEMTNAKKLICGHLFHVHCLRSWLERQQTCPTCRALVVPPENATSAAPGQRELHQGSQQGTSSSGNQGSEISSSAGVSNNSLSRHHARLQAAASAASVYGKSMVYPSANTVAWSSGVPGTEQVSTEPDQTLPQHNLPVENSHAYANMSETKLEEMRKSLETHLEILRNRLHFLETRKPESAGEPENKGKSVADAAE | – | binds | –
4 | DER2.1 (split-ubiquitin prey) (protein, UniProt Q8VZ96 1-244) MAQAVEEWYKQMPIITRSYLTAAVVTTVGCSLEIISPYNLYLNPTLVVKQYQFWRLVTNFLYFRKMDLDFLFHMFFLARYCKLLEENSFRGKTADFLYMLLFGATVLTGIVLIGGMIPYLSVSFSKIIFLSNSLTFMMVYVWSKQNPYIHMSFLGLFTFTAAYLPWVLLGFSILVGASAWGDFLGMIAGHAYYFLAFVYPRMTDRRPLKTPSFLKALFADEPVVIARPEDVRFAHAPFDEIHQD | – | binds | –
5 | DER2.1-nYFP (protein, UniProt Q8VZ96 1-244) MAQAVEEWYKQMPIITRSYLTAAVVTTVGCSLEIISPYNLYLNPTLVVKQYQFWRLVTNFLYFRKMDLDFLFHMFFLARYCKLLEENSFRGKTADFLYMLLFGATVLTGIVLIGGMIPYLSVSFSKIIFLSNSLTFMMVYVWSKQNPYIHMSFLGLFTFTAAYLPWVLLGFSILVGASAWGDFLGMIAGHAYYFLAFVYPRMTDRRPLKTPSFLKALFADEPVVIARPEDVRFAHAPFDEIHQD | – | – | binds
6 | DER2.2-nYFP (protein, UniProt Q9ZS88 1-244) MAQAVEEWYKQMPIITRSYLTAAVITTVGCSLDIISPYNLYLNPTLVVKQYQYWRLVTNFLYFRKMDLDFMFHMFFLARYCKLLEENSFRGKTADFLYMLLFGASVLTGIVLIGGMIPYLSASFAKIIFLSNSLTFMMVYVWSKQNPYIHMSFLGLFTFTAAYLPWVLLGFSILVGASAWVDLLGMIAGHAYYFLAEVYPRMTNRRPLKTPSFLKALFADEPVVVARPEDVRFAAAPFDEIHQD | – | – | binds
